Measured values from article PMC10698284.
Results are given in words; binding and its absence hold for the method and conditions named. In cells and extracts the contact can be indirect. Some results given as binding are weak or reduced against the parent protein; the word gives no strength.

Protein sequences, listed by entry. Tags and fused reporters are not part of them. Lines headed by an entry give the natural chain unless they say otherwise; changes in a name come on top. Chains listed by the source or under a name are the forms on record and can include a tag or linker. Residues count along the entry.
FLAG-SLC3A2 WTseq (P08195, residues 66-630): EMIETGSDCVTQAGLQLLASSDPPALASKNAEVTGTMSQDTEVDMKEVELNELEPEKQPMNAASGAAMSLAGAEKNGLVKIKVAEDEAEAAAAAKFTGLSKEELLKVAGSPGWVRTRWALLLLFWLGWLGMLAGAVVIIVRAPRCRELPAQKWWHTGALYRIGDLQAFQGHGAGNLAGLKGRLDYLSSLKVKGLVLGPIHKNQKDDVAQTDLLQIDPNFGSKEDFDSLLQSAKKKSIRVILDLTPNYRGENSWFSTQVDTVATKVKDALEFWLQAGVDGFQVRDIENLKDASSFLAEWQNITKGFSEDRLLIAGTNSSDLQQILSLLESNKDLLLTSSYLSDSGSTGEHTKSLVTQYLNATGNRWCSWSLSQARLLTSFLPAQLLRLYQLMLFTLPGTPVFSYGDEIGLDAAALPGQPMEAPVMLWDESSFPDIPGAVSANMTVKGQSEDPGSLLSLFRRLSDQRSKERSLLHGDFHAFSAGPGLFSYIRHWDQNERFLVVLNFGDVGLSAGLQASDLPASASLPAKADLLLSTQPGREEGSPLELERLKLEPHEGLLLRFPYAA
FLAG-SLC3A2 N365D (P08195, form named): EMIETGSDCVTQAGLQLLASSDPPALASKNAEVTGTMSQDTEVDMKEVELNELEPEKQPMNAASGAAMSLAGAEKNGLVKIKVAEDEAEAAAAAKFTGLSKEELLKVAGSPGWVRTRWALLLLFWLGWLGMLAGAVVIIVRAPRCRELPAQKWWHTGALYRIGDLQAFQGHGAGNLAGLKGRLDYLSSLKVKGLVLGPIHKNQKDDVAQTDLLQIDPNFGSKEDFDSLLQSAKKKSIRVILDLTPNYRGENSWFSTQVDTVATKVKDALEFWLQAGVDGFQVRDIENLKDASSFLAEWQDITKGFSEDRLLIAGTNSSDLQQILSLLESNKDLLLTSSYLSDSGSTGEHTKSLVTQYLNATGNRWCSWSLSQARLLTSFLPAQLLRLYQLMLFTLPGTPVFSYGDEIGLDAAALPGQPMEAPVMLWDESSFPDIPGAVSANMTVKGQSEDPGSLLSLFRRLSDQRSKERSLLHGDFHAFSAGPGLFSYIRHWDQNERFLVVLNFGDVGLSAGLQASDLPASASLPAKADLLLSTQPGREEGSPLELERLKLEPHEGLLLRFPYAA
FLAG-SLC3A2 N381D (P08195, form named): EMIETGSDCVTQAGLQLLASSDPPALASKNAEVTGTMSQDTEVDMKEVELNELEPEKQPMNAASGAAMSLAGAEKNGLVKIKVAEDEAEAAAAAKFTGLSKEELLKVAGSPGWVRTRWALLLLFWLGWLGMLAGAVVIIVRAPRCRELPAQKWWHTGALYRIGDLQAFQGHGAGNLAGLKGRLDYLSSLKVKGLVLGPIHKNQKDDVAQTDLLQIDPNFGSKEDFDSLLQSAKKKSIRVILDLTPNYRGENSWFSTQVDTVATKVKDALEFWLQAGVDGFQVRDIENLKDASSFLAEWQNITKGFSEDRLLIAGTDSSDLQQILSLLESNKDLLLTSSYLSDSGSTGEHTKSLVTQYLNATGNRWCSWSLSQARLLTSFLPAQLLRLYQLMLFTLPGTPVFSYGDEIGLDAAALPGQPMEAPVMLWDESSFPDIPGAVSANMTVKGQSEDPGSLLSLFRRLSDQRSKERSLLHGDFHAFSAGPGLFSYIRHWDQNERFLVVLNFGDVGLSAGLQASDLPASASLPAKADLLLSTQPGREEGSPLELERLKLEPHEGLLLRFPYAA
UniProt P17931: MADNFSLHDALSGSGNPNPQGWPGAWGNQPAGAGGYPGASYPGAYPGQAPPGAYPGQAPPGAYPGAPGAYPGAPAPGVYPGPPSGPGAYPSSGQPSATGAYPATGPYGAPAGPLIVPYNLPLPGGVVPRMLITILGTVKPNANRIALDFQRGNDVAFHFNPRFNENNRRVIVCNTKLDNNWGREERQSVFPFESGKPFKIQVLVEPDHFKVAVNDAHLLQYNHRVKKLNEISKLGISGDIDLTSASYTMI

Legend:
Experiment in all cases: co-IP; 5 μg/ml Gal3-488 bound 30 min at 4 °C to cells expressing FLAG-SLC3A2 WTseq or variants, washed, then 10 μg/ml anti-SLC3A2 (MEM-108) 30 min at 4 °C; cells lysed, cleared lysate overnight at 4 °C with protein G-sepharose; SDS-PAGE, co-pulled down Gal3 quantified; only the binder purified
[1] = target: FLAG-SLC3A2 N365D (human) (UniProt P08195)
[2] = target: FLAG-SLC3A2 N381D (human) (UniProt P08195)
[3] = target: FLAG-SLC3A2 WTseq (human) (UniProt P08195)

- binding [1]: binds
- binding [2]: binds
- binding [3]: binds
Substance: Gal3-488 recombinant protein (from UniProt P17931 1-250)
